{"sequences": {"note": "Amino acid sequences for entries named in this document (tags omitted). A change or cut given only in a name is not applied to a line headed by its entry. Residues count along the entry.", "UniProt Q00987": "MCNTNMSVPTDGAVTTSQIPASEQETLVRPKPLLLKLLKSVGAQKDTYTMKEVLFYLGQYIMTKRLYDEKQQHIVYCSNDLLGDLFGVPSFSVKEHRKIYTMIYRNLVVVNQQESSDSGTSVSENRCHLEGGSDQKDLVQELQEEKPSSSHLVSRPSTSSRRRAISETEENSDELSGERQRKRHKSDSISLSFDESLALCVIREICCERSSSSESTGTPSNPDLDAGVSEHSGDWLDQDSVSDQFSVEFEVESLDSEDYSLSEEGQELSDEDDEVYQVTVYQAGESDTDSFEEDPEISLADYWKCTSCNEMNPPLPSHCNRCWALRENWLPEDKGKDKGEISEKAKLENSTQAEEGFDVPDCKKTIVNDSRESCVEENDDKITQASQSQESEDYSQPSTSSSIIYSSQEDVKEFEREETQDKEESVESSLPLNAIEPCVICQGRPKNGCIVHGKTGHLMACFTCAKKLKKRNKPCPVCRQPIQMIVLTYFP", "UniProt P08581, 25-1390": "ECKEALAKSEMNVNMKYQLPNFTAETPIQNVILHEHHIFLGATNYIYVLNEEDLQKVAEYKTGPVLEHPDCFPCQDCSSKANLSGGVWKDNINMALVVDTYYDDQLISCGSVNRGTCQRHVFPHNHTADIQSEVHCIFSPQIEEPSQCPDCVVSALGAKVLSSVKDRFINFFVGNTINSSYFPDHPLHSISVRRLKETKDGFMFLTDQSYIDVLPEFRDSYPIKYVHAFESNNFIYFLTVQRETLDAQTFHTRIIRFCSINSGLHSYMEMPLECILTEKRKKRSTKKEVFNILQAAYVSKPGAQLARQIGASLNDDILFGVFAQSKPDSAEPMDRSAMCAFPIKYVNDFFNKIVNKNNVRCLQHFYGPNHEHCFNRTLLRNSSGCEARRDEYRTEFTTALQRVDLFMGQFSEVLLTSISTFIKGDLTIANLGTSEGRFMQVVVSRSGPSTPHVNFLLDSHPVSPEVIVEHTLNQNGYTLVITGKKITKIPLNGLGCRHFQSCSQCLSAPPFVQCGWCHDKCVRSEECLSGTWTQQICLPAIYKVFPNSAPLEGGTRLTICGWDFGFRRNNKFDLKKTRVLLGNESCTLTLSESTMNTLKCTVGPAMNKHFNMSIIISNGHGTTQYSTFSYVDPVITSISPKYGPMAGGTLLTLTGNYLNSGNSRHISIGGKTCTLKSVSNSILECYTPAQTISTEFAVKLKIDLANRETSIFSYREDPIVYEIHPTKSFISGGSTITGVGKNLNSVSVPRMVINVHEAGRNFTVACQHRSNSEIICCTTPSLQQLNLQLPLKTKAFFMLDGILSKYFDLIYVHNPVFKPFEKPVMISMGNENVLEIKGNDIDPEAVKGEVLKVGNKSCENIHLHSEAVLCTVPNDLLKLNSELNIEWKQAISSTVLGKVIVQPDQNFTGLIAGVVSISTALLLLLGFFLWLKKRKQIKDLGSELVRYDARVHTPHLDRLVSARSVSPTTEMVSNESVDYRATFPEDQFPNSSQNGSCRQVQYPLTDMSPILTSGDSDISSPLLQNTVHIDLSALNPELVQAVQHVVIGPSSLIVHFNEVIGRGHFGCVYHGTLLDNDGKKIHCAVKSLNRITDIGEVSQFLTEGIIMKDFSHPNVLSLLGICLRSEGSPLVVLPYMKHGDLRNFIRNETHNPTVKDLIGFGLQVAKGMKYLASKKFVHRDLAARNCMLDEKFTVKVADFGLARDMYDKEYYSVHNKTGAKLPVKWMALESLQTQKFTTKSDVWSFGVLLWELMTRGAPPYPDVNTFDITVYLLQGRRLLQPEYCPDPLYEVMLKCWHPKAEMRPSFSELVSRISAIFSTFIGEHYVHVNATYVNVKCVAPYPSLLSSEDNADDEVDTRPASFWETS", "UniProt P19338, 2-710": "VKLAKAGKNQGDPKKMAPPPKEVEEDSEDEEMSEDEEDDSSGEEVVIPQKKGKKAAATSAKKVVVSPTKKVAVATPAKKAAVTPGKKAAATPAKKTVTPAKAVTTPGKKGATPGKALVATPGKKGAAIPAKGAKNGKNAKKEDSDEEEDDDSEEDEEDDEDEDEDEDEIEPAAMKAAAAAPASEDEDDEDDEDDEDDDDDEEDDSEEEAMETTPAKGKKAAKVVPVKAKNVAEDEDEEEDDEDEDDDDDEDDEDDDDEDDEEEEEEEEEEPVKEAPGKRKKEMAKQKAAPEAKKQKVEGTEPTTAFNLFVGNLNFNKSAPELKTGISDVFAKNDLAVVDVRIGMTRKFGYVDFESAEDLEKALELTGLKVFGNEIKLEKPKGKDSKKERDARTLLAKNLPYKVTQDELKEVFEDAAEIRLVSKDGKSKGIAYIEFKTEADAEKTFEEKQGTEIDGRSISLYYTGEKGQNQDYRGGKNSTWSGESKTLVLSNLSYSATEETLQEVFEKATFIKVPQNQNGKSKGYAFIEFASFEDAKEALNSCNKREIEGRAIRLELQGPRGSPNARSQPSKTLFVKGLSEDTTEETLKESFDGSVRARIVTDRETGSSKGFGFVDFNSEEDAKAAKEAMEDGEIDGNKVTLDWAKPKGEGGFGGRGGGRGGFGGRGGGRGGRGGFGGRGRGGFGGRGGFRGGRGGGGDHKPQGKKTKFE"}, "source": "paper PMC11667235", "test_in_all_cases": "pull-down (streptavidin beads, immunoblot)", "key": {"[1]": {"molecular_target": "MDM2 (UniProt Q00987)", "settings": "NCL-silenced cells (siNCL), not effectively captured; MNNG/HOS cells treated with 500 nM biotin-labeled oligonucleotide for 6 h, whole-cell extract, streptavidin magnetic beads; protein in an extract; folded or branched DNA"}, "[2]": {"molecular_target": "c-MET (UniProt P08581)", "settings": "500 nM, cells treated 6 h before extraction; MNNG/HOS cells treated with 500 nM biotin-labeled oligonucleotide for 6 h, whole-cell extract, streptavidin magnetic beads; protein in an extract; folded or branched DNA"}, "[3]": {"molecular_target": "nucleolin (NCL) (UniProt P19338)", "settings": "500 nM, cells treated 6 h before extraction; MNNG/HOS cells treated with 500 nM biotin-labeled oligonucleotide for 6 h, whole-cell extract, streptavidin magnetic beads; protein in an extract; folded or branched DNA"}, "[4]": {"system": "nucleolin (NCL) + MDM2", "settings": "MDM2 captured in an NCL-dependent manner, 500 nM, 6 h; MNNG/HOS cells treated with 500 nM biotin-labeled oligonucleotide for 6 h, whole-cell extract, streptavidin magnetic beads; protein in an extract; folded or branched DNA"}}, "note": "Results from cells or extracts need not show a direct contact. For some of these results: No signal at the amounts used counts as a negative. For some of these results: The exact form of at least one protein or probe is not confirmed. For some of these results: A weaker result is weaker than the reference pair of the same experiment.", "data": [{"sequence": "GGTGGTGGTGGTTGTGGTGGTGGTGG [AS1411]", "values": [{"measurement": "binding result", "setting": "[1]", "value": "binds more weakly"}, {"measurement": "binding result", "setting": "[2]", "value": "no binding"}, {"measurement": "binding result", "setting": "[3]", "value": "binds"}, {"measurement": "binding result", "setting": "[4]", "value": "binds"}]}]}
